# Test results from patent US4883815A, “Hydrocinnamic acid derivatives” (Hoffmann-La Roche Inc., priority 1987, dated 1989).
# System: short-term memory
# Assay: passive avoidance test in a "Skinner box": reversal of scopolamine-induced blocking of the short-term memory
# Format: in vivo, rats
# Details: scopolamine 0.3 mg/kg i.p. and distilled water p.o.; during 3-4 hours
smiles,measurement,value
CN1[C@@H]2C[C@@H](OC(=O)[C@H](CO)c3ccccc3)C[C@H]1[C@@H]1O[C@@H]12 [scopolamine],animals with retrograde effect on the short-term memory (have forgotten to remain on the platform),85-92%
